Molecules are shown by their SMILES.

This experiment concerns DU-145. The experiment in a line: CCK-8 proliferation, DU-145. In kind it is cell-based. The note with it: Homo sapiens, DU-145, 96 h, read-out: Inhibitory activity (IC50) on tumor cell proliferation, DU-145. As to the method:
The tumor cells used herein were cultured in a cell culture medium listed in table A1 at 37°C in an incubator with 5% CO2. Prior to experimentation, all cell lines used were correctly identified by STR profiling, and tested negative for mycoplasma contamination using a mycoplasma detection kit through routine screenings. Table A1. Tumor cells and cell culture medium used in the present disclosure
IC50 values of the compounds of the present disclosure (including the compounds in Table 1, and compounds of examples) were measured using the Meilun Cell Counting Kit-8 kit from Dalian Meilun Biotech Co., Ltd. Assay details are as follows: tumor cells were seeded in a 96-well plate at a density listed in Table A2. After 24h, 100 µL of the inoculated cells were treated with 0.5µL of the compounds of the present disclosure (including the compounds in Tables 1 and 2, and compounds of examples) at 10 different successively decreasing concentrations (starting at the highest concentration of 10µM; 5-fold serial dilutions). […] The growth inhibition of the compounds of the present disclosure on cells was plotted by Prism Graphpad software, and the IC50 values of the compounds of the present disclosure were calculated therefrom. […]

`CNC(=O)c1ccc(N2C(=S)N(c3ccc(C#N)c(C(F)(F)F)c3)C(=O)C2(C)C)cc1F` [Enzalutamide]: the IC50 lay in the range of 1000 to 5000 nM.
